{"source": "paper PMC7072537", "about": "“Characterization of a Novel Mannose-Binding Lectin with Antiviral Activities from Red Alga, Grateloupia chiangii” (Biomolecules, 2020)", "data": [{"test_system": "T1, G. chiangii lectin (GCL)", "T1 construct": "N-terminus VVSNRLVSGEXLHR", "assay": "glycan microarray", "format": "binding, Grateloupia chiangii", "conditions": "biotinylated GCL 50 μg/mL, Cy3-equivalent streptavidin; glycan immobilised through spacer; labelled protein", "units": {"RFU (Normalized) / GCL": "RFU"}, "values": [{"substance": "Gal-α-1,4-Gal-β-1,4-Glc-β-Sp [G0018]", "RFU (Normalized) / GCL": "1124 ± 47"}, {"substance": "Gal-β-1,4-Glc-β-Sp [G0016]", "RFU (Normalized) / GCL": "1260 ± 126"}, {"substance": "GalNAc-β-1,3-Gal-β-1,4-Glc-β-Sp [G0020]", "RFU (Normalized) / GCL": "1092 ± 92"}, {"substance": "Glc-α-1,2-Gal-α-Sp [G0048]", "RFU (Normalized) / GCL": "1173 ± 110"}, {"substance": "Glc-α-1,4-Glc-β-Sp1 [G0076]", "RFU (Normalized) / GCL": "1238 ± 28"}, {"substance": "Maltoheptaose-β-Sp1 [G0083]", "RFU (Normalized) / GCL": "8132 ± 1810"}, {"substance": "Maltohexaose-β-Sp1 [G0082]", "RFU (Normalized) / GCL": "7524 ± 1976"}, {"substance": "Maltotetraose-β-Sp1 [G0080]", "RFU (Normalized) / GCL": "2577 ± 351"}, {"substance": "Man-α-1,6-(Man-α-1,3-)Man-α-1,6-(Gal-β-1,4-GlcNAc-β-1,2-Man-α-1,3-)Man-β-1,4-GlcNAc-β-1,4-GlcNAc-Sp5 [N-011]", "RFU (Normalized) / GCL": "1148 ± 173"}, {"substance": "Man-α-1,6-(Man-α-1,3-)Man-α-1,6-(GlcNAc-β-1,2-Man-α-1,3-)Man-β-1,4-GlcNAc-β-1,4-GlcNAc-Sp5 [N-010]", "RFU (Normalized) / GCL": "1142 ± 116"}, {"substance": "Man-α-1,6-(Man-α-1,3-)Man-α-1,6-[Gal-β-1,4-(Fuc-α-1,3-)GlcNAc-β-1,2-Man-α-1,3-]Man-β-1,4-GlcNAc-β-1,4-GlcNAc-Sp5 [N-014]", "RFU (Normalized) / GCL": "1129 ± 151"}, {"substance": "α-Man-Sp [G0003]", "RFU (Normalized) / GCL": "2093 ± 294"}, {"substance": "β-Gal-Sp [G0002]", "RFU (Normalized) / GCL": "2165 ± 237"}, {"substance": "β-Glc-Sp [G0001]", "RFU (Normalized) / GCL": "2273 ± 544"}, {"substance": "β-GlcNAc-Sp [G0006]", "RFU (Normalized) / GCL": "1104 ± 133"}]}]}
